Measured values: PMC10831263
These are yes or no findings as the source states them, for the method shown. In cells and extracts the contact can be indirect. Some results given as binding are weak or reduced against the parent protein; the word gives no strength.

The chains behind the UniProt entries cited, without tags or fusion partners. Where a name states a change or a piece, a line headed by the entry shows the natural chain unless it says otherwise. A line that says so, or that is headed by a name, gives the form on record, which may keep a tag or linker. Residues count along the entry.
UniProt Q13772: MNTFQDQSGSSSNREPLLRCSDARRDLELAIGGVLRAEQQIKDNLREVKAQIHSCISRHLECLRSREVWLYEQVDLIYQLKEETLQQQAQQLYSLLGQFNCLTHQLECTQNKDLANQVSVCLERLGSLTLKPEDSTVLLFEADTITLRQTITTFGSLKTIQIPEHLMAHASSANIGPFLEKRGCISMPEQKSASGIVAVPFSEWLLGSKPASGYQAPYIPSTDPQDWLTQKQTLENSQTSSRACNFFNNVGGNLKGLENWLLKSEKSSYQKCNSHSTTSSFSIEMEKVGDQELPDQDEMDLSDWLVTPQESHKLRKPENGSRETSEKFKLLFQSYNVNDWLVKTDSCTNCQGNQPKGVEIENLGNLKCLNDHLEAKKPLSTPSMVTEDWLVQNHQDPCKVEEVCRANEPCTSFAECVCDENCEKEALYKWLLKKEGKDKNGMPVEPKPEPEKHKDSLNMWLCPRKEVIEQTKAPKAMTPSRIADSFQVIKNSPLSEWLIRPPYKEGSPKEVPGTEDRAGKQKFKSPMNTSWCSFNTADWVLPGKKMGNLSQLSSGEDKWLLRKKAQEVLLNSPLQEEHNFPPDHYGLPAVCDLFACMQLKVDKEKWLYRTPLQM
HA-tagged full-length NCOA4 mutant 4C > A (Q13772, form named): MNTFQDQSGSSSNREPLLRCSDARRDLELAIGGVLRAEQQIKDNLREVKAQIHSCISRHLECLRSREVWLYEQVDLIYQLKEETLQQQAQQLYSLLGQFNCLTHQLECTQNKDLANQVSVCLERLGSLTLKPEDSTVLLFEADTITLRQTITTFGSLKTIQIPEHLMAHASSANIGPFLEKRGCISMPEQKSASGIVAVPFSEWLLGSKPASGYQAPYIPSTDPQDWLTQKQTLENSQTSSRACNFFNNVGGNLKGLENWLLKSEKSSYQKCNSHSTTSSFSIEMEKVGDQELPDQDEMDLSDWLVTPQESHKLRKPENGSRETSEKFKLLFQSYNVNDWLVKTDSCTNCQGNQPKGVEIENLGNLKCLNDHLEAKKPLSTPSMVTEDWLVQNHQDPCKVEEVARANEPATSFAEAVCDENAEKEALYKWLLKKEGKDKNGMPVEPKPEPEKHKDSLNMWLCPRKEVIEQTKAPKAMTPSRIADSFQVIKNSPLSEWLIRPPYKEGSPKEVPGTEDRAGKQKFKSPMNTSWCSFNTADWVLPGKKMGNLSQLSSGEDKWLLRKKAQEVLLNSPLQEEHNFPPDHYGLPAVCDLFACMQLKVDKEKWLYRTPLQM
UniProt O95714, residues 2540-2700: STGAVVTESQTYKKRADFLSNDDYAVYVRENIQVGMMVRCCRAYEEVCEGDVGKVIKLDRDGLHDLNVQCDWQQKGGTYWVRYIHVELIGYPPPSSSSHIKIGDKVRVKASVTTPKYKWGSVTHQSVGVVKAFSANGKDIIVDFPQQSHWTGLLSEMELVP

Legend:
[1] = molecular target: HA-tagged full-length NCOA4 (WT) (human) (UniProt Q13772); assay: co-IP; HEK293 cells cotransfected with HA-tagged NCOA4 (WT or mutants) and myc-tagged HERC2 (2540–2700th), lysed 24 h after transfection (50 mM Tris-Cl pH 7.5, 150 mM NaCl, 0.1% NP-40); IP with anti-HA magnetic beads 4 h at 4 °C, blot for HA and myc; untreated or treated with DFO (100 μM) or FAC (200 μM) for 6 h
[2] = molecular target: HA-tagged full-length NCOA4 mutant 4C > A (human) (UniProt Q13772); assay: as above

binding [1]: binds
binding [2]: no binding
Substance: myc-tagged truncated HERC2 (amino acids 2540–2700th) (from UniProt O95714 2540-2700) (domain or fragment)
